In patent US20140186875A1, “NOVEL OPTICAL LABELING MOLECULES FOR PROTEOMICS AND OTHER BIOLOGICAL ANALYSIS” (Montana State University, priority 2007, published 2014):

Tested on: E. coli cytosolic proteins
Assay: Number of protein spots detected on 2D gels at increasing dye labeling levels
Settings: 24 cm 3-10 2D gel, 532 nm laser

Which results are given for CC1=CC(CCC(=O)NC(CS(=O)(=O)[O-])C(=O)NCCN(C)CCCCCC(=O)ON2C(=O)CCC2=O)=[N+]2C1=Cc1c(CCC[N+](C)(C)C)cc(-c3ccccc3)n1[B-]2(F)F (stereo not shown) [Compound 43, 4,4-difluoro-1-methyl-5-phenyl-7-(3-trimethylammonium)-propyl-4-bora-3a,4a,diaza-s-indacene-3-(6-(N-methyl-N-(2-(2-propionamido-3-sulfonatepropionamido)ethyl)amino))hexanoic acid, succinimidyl ester hydrotrifluoroacetate]?
number of protein spots detected (1× labeling (400 pmol per 50 μg protein)): 1,245; number of protein spots detected (5× labeling (2 nmol per 50 μg protein)): 3,252; number of protein spots detected (10× labeling (4 nmol per 50 μg protein)): 4,005; number of protein spots detected (20× labeling (8 nmol per 50 μg protein)): 4,825
